Drawing on PubChem BioAssay AID308 (DTP/NCI, 2004), this text covers survivor count and T/C for 21 molecules.

The list does not hold the whole screen: it is rich in T/C values a quarter to a half above the control, in often repeated tests (any T/C) and in doses without a T/C. Other doses and runs of a compound stand elsewhere. T/C: endpoint of the treated group in % of that of the vehicle group. Some doses have a count of surviving animals in place of a T/C: the source holds a T/C of zero for them, seemingly a mark for toxic or unscored doses. Some survivor counts are full or nearly so, which does not show that the dose was tolerated: the source hardly ever lists a survival T/C far under the control, and the zero likely stands for such cases as well. Survivors were counted at the toxicity check, usually on the fifth day, unless a day is given; later deaths do not show. Schedules are NCI's codes, taken here to give the interval after Q, in days (D) or hours (H), and the number of doses after X. Some schedules carry Z or #; the key to these is not given. For survival time, the PubChem record calls one and a half times the control and up active, and a quarter to a half above the control has no call in these data; cut-offs in other NCI protocols can differ.

The subject of the experiment is BDF1 mice, L1210 6-MP/6-TG resistant leukemia ip, survival T/C. Put plainly: NCI In Vivo Anticancer Drug Screen. Data for tumor model L1210 Leukemia resistant to 6-MP and 6-Thioguanine; NSC 755, NSC 752 (intraperitoneal) in B6D2F1 (BDF1) mice. The following applies: T/C endpoint: mean survival time, higher T/C = longer survival. The method, then:
The antitumor activity of compounds was measured in mice bearing transplantable tumors. Survival or tumor size were measured and the results are expressed as the measurement made in the treated group (T) divided by the measurement made in the vehicle treated control group (C). The tumor model used in this assay is L1210 Leukemia resistant to 6-MP and 6-Thioguanine; NSC 755, NSC 752 (intraperitoneal) in B6D2F1 (BDF1) mice

Setting [1] is: dose: 40.0 mg/kg/injection, schedule: Q01DX Z (ip), vehicle: carboxymethylcellulose (CMC).
[2] abbreviates: dose: 50.0 mg/kg/injection, schedule: Q01DX Z (ip), vehicle: carboxymethylcellulose (CMC).
Setting [3] is: dose: 18.0 mg/kg/injection, schedule: Q01DX Z (ip), vehicle: carboxymethylcellulose (CMC).
[4] abbreviates: dose: 25.0 mg/kg/injection, schedule: Q01DX Z (ip), vehicle: carboxymethylcellulose (CMC).
Where [5] appears, read: dose: 200.0 mg/kg/injection, schedule: Q01DX Z (ip), vehicle: carboxymethylcellulose (CMC).
[6] abbreviates: dose: 100.0 mg/kg/injection, schedule: Q01DX Z (ip), vehicle: carboxymethylcellulose (CMC).
[7] abbreviates: dose: 150.0 mg/kg/injection, schedule: Q01DX Z (ip), vehicle: carboxymethylcellulose (CMC).
Where [8] appears, read: dose: 500.0 mg/kg/injection, schedule: Q01DX Z (ip), vehicle: other.

`CC/C(=C(/CC)c1ccc(O)cc1)c1ccc(O)cc1`: the survivor count by setting is: (dose: 125.0 mg/kg/injection, schedule: Q01DX Z (sc), vehicle: steroid suspending solution) 6 of 6; (dose: 250.0 mg/kg/injection, schedule: Q01DX Z (sc), vehicle: steroid suspending solution) 6 of 6; (dose: 500.0 mg/kg/injection, schedule: Q01DX Z (sc), vehicle: steroid suspending solution) 6 of 6; (dose: 1000.0 mg/kg/injection, schedule: Q01DX Z (sc), vehicle: steroid suspending solution) 6 of 6.
`CN(C)c1nc(N(C)C)nc(N(C)C)n1`: the survivor count (dose: 200.0 mg/kg/injection, schedule: Q01DX Z (ip), vehicle: other) is 6 of 6 and the survivor count (dose: 400.0 mg/kg/injection, schedule: Q01DX Z (ip), vehicle: other) is 0 of 6.
As for `O=C(O)CCCc1ccc(N(CCCl)CCCl)cc1`, the survivor count under setting [1] is recorded as 3 of 6 and the survivor count under setting [2] is given as 0 of 6.
`O[C@H](CN1CC1)[C@@H](O)CN1CC1`: the T/C was 144 % of control (dose: 0.5 mg/kg/injection, schedule: Q01DX Z (ip), vehicle: saline) and 137 % of control (dose: 45.0 micrograms/kg/injection, schedule: Q01DX Z (ip), vehicle: saline). Also, the survivor count by setting is: (dose: 2.0 mg/kg/injection, schedule: Q01DX Z (ip), vehicle: saline) 6 of 6; (dose: 3.75 mg/kg/injection, schedule: Q01DX Z (ip), vehicle: saline) 6 of 6; (dose: 5.0 mg/kg/injection, schedule: Q01DX Z (ip), vehicle: saline) 0 of 6; (dose: 7.5 mg/kg/injection, schedule: Q01DX Z (ip), vehicle: saline) 0 of 6; (dose: 10.0 mg/kg/injection, schedule: Q01DX Z (ip), vehicle: saline) 0 of 6.
Consider `N[C@@H](Cc1ccc(N(CCCl)CCCl)cc1)C(=O)O`, for which the survivor count under setting [3] is 6 of 6; the survivor count (dose: 24.0 mg/kg/injection, schedule: Q01DX Z (ip), vehicle: carboxymethylcellulose (CMC)) is given as 3 of 6; the survivor count (dose: 36.0 mg/kg/injection, schedule: Q01DX Z (ip), vehicle: carboxymethylcellulose (CMC)) is on record as 1 of 6; the survivor count (dose: 54.0 mg/kg/injection, schedule: Q01DX Z (ip), vehicle: carboxymethylcellulose (CMC)) is recorded as 0 of 6.
For the molecule `O=c1cnn(C2OC(CO)C(O)C2O)c(=O)[nH]1` (stereo not given), the T/C is, setting by setting: (dose: 125.0 mg/kg/injection, schedule: Q01DX Z (ip), vehicle: saline) 127 % of control; (dose: 250.0 mg/kg/injection, schedule: Q01DX Z (ip), vehicle: saline) 127 % of control.
On to `CCn1cnc2c(=S)nc[nH]c21`, for which the survivor count (dose: 18.75 mg/kg/injection, schedule: Q01DX Z (ip), vehicle: carboxymethylcellulose (CMC)) is recorded as 6 of 6; the survivor count under setting [4] is 6 of 6; the survivor count (dose: 37.5 mg/kg/injection, schedule: Q01DX Z (ip), vehicle: carboxymethylcellulose (CMC)) is reported as 6 of 6; the survivor count under setting [5] was 6 of 6.
Turning to `O=C(Nc1ccc(C2=NCCCN2)cc1)c1ccc(C(=O)Nc2ccc(C3=NCCCN3)cc2)cc1`, the T/C (dose: 0.93 mg/kg/injection, schedule: Q01DX Z (ip), vehicle: carboxymethylcellulose (CMC)) was 139 % of control. Besides, the survivor count is 6 of 6 (dose: 30.0 mg/kg/injection, schedule: Q01DX Z (ip), vehicle: carboxymethylcellulose (CMC)); 0 of 6 under setting [2]; 0 of 6 (dose: 75.0 mg/kg/injection, schedule: Q01DX Z (ip), vehicle: carboxymethylcellulose (CMC)); 0 of 6 under setting [6]; 0 of 6 under setting [7].
`O=c1[nH]cnc2n[nH]nc12`: the survivor count by setting is: (dose: 948.0 mg/kg/injection, schedule: Q01DX009 (ip), vehicle: Klucel (hydroxypropylcellulose) (HPC)) 1 of 10; (dose: 1422.0 mg/kg/injection, schedule: Q01DX009 (ip), vehicle: saline with Tween-80) 9 of 10.
Consider `Nc1nc(=S)c2ncn(C3OC(COC(=O)c4ccc(Cl)cc4)C(OC(=O)c4ccc(Cl)cc4)C3OC(=O)c3ccc(Cl)cc3)c2[nH]1` (stereo not given), for which the survivor count is, setting by setting: (dose: 25.0 mg/kg/injection, schedule: Q01DX015 (ip), vehicle: carboxymethylcellulose (CMC)) 6 of 6; (dose: 50.0 mg/kg/injection, schedule: Q01DX015 (ip), vehicle: carboxymethylcellulose (CMC)) 6 of 6; (dose: 200.0 mg/kg/injection, schedule: Q01DX015 (ip), vehicle: carboxymethylcellulose (CMC)) 6 of 6.
`CN(C)C(=S)N=Nc1c(O)[nH]c2ccccc12`: the survivor count under setting [5] is recorded as 5 of 6.
With `N#CCSc1ncnc2nc[nH]c12`, the survivor count under setting [2] is 6 of 6, the survivor count under setting [7] is on record as 6 of 6 and the survivor count under setting [5] is 0 of 6.
With `OCC1OC(n2cnc3c(=S)nc[nH]c32)C(O)C1O` (stereo not given), the survivor count (dose: 400.0 mg/kg/injection, schedule: Q01DX010 (ip), vehicle: carboxymethylcellulose (CMC)) was 10 of 10.
In the case of `Clc1ncnc2c1ncn2C1CCCCO1` (stereo not given), the survivor count (dose: 250.0 mg/kg/injection, schedule: Q01DX Z (ip), vehicle: other) is reported as 5 of 6 and the survivor count under setting [8] is 0 of 6.
Turning to `O=C(Nc1ccc(C2=NCCN2)cc1)c1ccc(C(=O)Nc2ccc(C3=NCCN3)cc2)c([N+](=O)[O-])c1`, the T/C runs as follows: (dose: 4.0 mg/kg/injection, schedule: Q01DX Z (ip), vehicle: methylcellulose (MC)) 126 % of control; (dose: 12.0 mg/kg/injection, schedule: Q01DX Z (ip), vehicle: carboxymethylcellulose (CMC)) 126 % of control; under setting [3], 132 % of control; (dose: 40.0 mg/kg/injection, schedule: Q02DX010 (ip), vehicle: saline) 146 % of control. Further, the survivor count is 9 of 10 under setting [1]; 9 of 10 (dose: 90.0 mg/kg/injection, schedule: Q02DX010 (ip), vehicle: saline); 3 of 10 (dose: 135.0 mg/kg/injection, schedule: Q02DX010 (ip), vehicle: saline).
For the molecule `CCCC(=O)OCC1OC(n2cnc3c(=S)nc(N)[nH]c32)C(OC(=O)CCC)C1OC(=O)CCC` (stereo not given), the survivor count (dose: 48.0 mg/kg/injection, schedule: Q01DX Z (ip), vehicle: carboxymethylcellulose (CMC)) is on record as 6 of 6.
Consider `CN(C)c1ccc(/C=C/c2ccnc3ccccc23)cc1`, for which the survivor count is 6 of 6 (dose: 75.0 mg/kg/injection, schedule: Q01DX Z (ip), vehicle: saline) and 6 of 6 (dose: 100.0 mg/kg/injection, schedule: Q01DX Z (ip), vehicle: saline).
On to `CCSc1ncc(Br)c(Sc2nc(N)nc3nc[nH]c23)n1`, for which the survivor count is 9 of 9 under setting [4], 10 of 10 under setting [2], 9 of 10 under setting [6] and 10 of 10 under setting [5].
As for `Clc1ccccc1CSc1ncnc2nc[nH]c12`, the survivor count under setting [8] is reported as 7 of 10.
On to `O=c1[nH]c(=O)n(C2CC(O)C(CO)O2)cc1I` (stereo not given), for which the T/C under setting [2] is 127 % of control. The survivor count (dose: 500.0 mg/kg/injection, schedule: Q01DX Z (ip), vehicle: carboxymethylcellulose (CMC)) was 4 of 6.
Take `O=C(Nc1ccc(C2=NCCN2)cc1)c1cccc(C(=O)Nc2ccc(C3=NCCN3)cc2)c1`: the T/C by setting is: (dose: 5.0 mg/kg/injection, schedule: Q01DX Z (ip), vehicle: water) 143 % of control; (dose: 25.0 mg/kg/injection, schedule: Q01DX Z (ip), vehicle: water) 131 % of control. The survivor count is 5 of 6 (dose: 50.0 mg/kg/injection, schedule: Q01DX Z (ip), vehicle: water); 4 of 6 (dose: 75.0 mg/kg/injection, schedule: Q01DX Z (ip), vehicle: water); 4 of 6 (dose: 100.0 mg/kg/injection, schedule: Q01DX Z (ip), vehicle: water).
